Experimental findings from paper PMC4758748 are described below.

The chains behind the UniProt entries cited, without tags or fusion partners.
UniProt P08964: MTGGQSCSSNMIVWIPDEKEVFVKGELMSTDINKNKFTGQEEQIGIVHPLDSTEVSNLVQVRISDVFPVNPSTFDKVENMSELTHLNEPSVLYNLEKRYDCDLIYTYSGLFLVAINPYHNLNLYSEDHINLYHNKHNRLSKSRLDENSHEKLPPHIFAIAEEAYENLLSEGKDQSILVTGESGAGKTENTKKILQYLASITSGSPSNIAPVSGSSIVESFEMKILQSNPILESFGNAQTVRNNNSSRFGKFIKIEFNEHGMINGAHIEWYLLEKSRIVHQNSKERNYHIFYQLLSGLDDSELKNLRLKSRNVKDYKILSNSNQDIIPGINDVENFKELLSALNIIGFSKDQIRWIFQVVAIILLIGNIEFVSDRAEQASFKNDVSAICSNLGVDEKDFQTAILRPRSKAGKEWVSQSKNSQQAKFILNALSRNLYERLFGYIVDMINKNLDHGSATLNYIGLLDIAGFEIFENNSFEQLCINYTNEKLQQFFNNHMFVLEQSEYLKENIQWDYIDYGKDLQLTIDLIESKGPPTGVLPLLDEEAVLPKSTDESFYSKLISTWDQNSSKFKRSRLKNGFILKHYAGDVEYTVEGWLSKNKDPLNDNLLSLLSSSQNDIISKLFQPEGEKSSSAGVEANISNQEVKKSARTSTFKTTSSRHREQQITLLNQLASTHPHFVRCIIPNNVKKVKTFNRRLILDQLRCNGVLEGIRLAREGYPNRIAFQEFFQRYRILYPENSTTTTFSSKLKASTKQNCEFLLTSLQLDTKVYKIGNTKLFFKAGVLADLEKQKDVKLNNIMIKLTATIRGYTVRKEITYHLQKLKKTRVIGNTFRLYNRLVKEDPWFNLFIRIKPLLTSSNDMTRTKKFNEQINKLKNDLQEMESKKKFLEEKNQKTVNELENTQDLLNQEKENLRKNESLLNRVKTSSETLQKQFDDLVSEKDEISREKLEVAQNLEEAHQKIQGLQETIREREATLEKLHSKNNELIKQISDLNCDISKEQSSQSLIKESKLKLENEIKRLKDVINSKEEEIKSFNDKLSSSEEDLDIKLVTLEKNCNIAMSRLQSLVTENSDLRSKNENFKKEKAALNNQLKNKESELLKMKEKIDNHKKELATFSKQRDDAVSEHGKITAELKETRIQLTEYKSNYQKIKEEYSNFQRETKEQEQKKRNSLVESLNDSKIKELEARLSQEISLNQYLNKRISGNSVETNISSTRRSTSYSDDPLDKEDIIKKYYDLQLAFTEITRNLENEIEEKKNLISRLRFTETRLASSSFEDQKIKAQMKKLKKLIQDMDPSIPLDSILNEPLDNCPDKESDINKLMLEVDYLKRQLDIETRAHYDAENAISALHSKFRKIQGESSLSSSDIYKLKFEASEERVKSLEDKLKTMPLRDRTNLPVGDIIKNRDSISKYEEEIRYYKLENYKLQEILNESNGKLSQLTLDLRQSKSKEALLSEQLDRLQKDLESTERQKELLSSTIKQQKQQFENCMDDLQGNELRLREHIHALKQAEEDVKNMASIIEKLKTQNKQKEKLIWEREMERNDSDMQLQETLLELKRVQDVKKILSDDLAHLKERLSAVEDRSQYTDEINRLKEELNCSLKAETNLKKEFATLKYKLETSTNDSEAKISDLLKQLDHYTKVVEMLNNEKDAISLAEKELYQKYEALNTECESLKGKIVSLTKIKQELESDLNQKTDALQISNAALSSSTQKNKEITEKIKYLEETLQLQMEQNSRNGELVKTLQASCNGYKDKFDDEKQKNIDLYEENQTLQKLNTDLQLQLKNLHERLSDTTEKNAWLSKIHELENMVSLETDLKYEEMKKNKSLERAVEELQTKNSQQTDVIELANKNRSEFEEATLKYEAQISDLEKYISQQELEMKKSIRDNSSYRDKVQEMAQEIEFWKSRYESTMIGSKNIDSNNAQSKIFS

No constants are given. Whether binding was seen depends on the method and setting. Binding seen in cells or lysates may run through a third protein. These calls come from enrichment with a bait or labelling near it, and not all partners need be listed. For some assays here: Where a sequence is shown, tags or fusion partners need not be part of it.

The target in assay [1] is T1, Chs2-9MYC (S. cerevisiae) (UniProt P14180).
T1 sequence: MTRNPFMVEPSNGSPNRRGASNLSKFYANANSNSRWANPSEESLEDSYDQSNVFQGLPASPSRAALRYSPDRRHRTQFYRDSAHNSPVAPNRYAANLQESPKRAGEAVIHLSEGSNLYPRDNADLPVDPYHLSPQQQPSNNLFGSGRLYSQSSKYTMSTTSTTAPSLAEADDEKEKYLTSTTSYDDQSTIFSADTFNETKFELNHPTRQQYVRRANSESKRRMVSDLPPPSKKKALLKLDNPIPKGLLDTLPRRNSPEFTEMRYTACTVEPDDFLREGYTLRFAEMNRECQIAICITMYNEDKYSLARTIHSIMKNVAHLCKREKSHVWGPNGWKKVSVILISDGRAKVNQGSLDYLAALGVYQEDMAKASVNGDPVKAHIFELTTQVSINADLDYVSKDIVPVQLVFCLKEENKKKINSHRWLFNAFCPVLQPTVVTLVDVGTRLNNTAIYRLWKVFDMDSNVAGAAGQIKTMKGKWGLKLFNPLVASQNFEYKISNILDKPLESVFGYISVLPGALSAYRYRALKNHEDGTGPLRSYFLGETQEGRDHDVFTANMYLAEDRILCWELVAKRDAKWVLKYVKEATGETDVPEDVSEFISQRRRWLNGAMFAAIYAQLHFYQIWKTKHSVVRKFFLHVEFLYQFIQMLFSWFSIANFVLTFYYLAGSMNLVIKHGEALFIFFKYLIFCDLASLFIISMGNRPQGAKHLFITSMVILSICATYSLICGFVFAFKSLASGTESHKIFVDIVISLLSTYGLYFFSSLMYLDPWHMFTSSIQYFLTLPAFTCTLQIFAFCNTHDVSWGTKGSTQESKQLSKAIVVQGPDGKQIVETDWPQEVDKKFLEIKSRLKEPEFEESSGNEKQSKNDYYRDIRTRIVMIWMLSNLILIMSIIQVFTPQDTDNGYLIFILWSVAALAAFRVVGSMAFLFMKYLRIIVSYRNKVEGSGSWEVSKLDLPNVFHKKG
As to the kind of experiment: affinity purification with mass spectrometry; two steps: five-litre culture, extract 105 minutes after release from G1; Inn1-TAP on IgG beads, released with TEV protease, then immunoprecipitation of Chs2-9MYC; gel lanes cut into 10 bands, mass spectrometry; control strain expressing the TAP tag alone.

A further assay deals with T2, Inn1-TAP (S. cerevisiae) (UniProt P53901).
T2 sequence: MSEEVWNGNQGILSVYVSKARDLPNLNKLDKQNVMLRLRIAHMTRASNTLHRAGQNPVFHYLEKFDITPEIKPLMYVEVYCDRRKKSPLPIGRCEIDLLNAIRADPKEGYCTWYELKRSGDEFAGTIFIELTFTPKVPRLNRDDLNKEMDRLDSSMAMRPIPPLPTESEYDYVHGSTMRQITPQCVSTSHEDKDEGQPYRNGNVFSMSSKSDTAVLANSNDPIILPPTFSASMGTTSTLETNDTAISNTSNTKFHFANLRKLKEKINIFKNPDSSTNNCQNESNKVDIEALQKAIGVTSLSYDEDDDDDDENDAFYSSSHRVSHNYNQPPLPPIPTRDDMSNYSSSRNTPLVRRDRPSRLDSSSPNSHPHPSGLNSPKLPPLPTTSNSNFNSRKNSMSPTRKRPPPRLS
The assay is described as above.

As to “Myo1 (endogenous, in yeast extract) (from UniProt P08964 1-1928)”, the binding entry (in assay [1]; in the assay with Inn1-TAP (S. cerevisiae)) was “binds” each time.

B1: Iqg1 (endogenous, in yeast extract) (protein, UniProt Q12280 1-1495)
chain: MTAYSGSPSKPGNNNSYLNRYVENLGTNVTPPLRPQSSSKINSSLNIASPSHLKTKTSASNSSATILSKKVESSVSKLKPSLPNKLVGKYTVDLSNYSKIELRYYEFLCRVSEVKIWIEAVIEEALPSEIELCVGDSLRNGVFLAKLTQRINPDLTTVIFPAGDKLQFKHTQNINAFFGLVEHVGVPDSFRFELQDLYNKKNIPQVFETLHILISMINKKWPGKTPALTNVSGQISFTKEEIAACKKAWPRIRDFKSLGTNINTAPASPEEPKEKRSGLIKDFNKFERPNIPVEEILITPRKNITDANCSDFSNTPSPYNEAPKMSNLDVVVEKRKFTPIEPSLLGPTPSLEYSPIKNKSLSYYSPTISKYLTYDTEFYTRRSRAREEDLNYYQTFKYSPSHYSPMRRERMTEEQFLEKVVQLQNICRGVNTRFNLYIQKRLLNLFEQDILRFQACLRGNKFRVLSSMYLPIRRAKIDVPHVEAIQSRIKGSRIRYKYDKLKFTLSRFSCTVELLQAYCRSKLLKTTVNTKLNDIEISHYPLTKLQSYMRASYVRKKVMSLNTKLNDERESIMKFSAIIRGNVVRCSEDAILSAVHDVHKENISKLQSLIRGIFTRSCLASIIYSLGKENCNIIQLSACIRGNAVRHKVQSLFAPENNLSETVHDLQGLVRGILVRYTLDLVDDIVEYNNLALFQAFSRGALVRESLDQKSSFYKRNVRSVIMIQSWIRKSLQRSAYLELLDCPNPSLWAVKKFVHLLNGTATIEEVQNQLESCQASLDSENMKKERLLKSIRQQLNINGVLDKFGLLKDKDHELGISDSTIPKSKYQKYEKLFYMLQVDPSYWKLLYLKEPEFVAKNVYMTFGTVNQRMNDRERSYFTRFVCEMLQNAINEAPSIESFLDNRSQFWQTILQDFLRRESPEFFSIIVPVLDYLSDPVVDFESDPYKIYQEIHGFSSPQHCSPVDDASTKNKFIDNLRCLWHAIEMVAEIYTRKVHTIPVEIRYLCTKIFCYAADKNIEEIDSLRAISSILVNVFVSEYLVNREYYGYKDSNVQKNNQKIDILMKSLATVFEIKNFDGFLDPLNQYANEIKPHIKDVLYNVLVDPEYEQEGDRLIYLDMVSPSPKLELLTEKVLEISGKFEEYLNEFPEADILHDILEKNLDNSSFPRSGRVTLELDASAYRFLVSDDKMRKIYDQVKRAFVYMMQIEDVDTNLYDLSISTILPQDEPNFANFLEQNPKIRDDPMIQKLKPLKYFTLKNVTLKKIHELESTGTFCSSDNKLQNFLNDIANTIKNPNYAIDYVTQEIYITKETLTKISEMNHSLDIELSRLKKHVDHTIKDFQKAKDFSPVHKSKFGNFKNAVKKVQGRERSELQGMKFKWNTKQLYERGVLKTIRGEKLAELTVKVFGSSGPKFPDIIFKISTSDGSRFGIQMIDKRKGPDKRYSDDVDSFSFKDLIKTQVEPKIETWKLFHSNVVVNNSQLLHLIVSFFYKRNAL
Take B1: the binding entry (in assay [1]; in the assay with Inn1-TAP (S. cerevisiae)) was “binds” each time.

B2: Hof1 (endogenous, in yeast extract) (protein, UniProt Q05080 1-669)
chain: MSYSYEACFWDPNDNGVNILLGHISQGIRSCDSMILFFKQRSELEKDYARRLGAITGKLDKDIGTNMDYGKLNETFNVVLSVEKARAQSHSKQSEILFRQIYTDTKAFAANLQARYTTLSGKIERLRMDKFNKKKGCEVLQKKLQDAQIRFRDLQLNENNMIGAKRVEHNKRELLKWESNSQEYKVQLDVLKQEYKASQKFWIHEWAQLSCELQEMENARISFLQSKLQQFATSSMETYILEQTKMDMLTNHLNSFTAADEISTFSKENGTGRLKHKTSKGDMNSSANWAQMSSISTTSKKTESYMDNIRKLSSQLKETENKRKLASIDKYEKPLPSPEVTMATQFRNSTPVIRNETKVVANPTLSLRSSPVQLQSNVDDSVLRQKPDKPRPIVGEEQLKPDEDSKNPDEKGLMVHKRNQSLSSPSESSSSNPTDFSHIKKRQSMESMTTSVSSMANSIDDSQRFAKSWNSSNRKRKSMSHLQVPSSASSRSDDGGRTPNSAHNLNEDDYNTRRDTSTSTILFKPPVAVRGTSRGHTHRQSMIMQDSSNPIEDALYEMERIQSSSKPGTKTGNIMDERGVVRDRGITVTLPIVTSEGFPVIEYAKAMYPLIGNEAPGLANFHKGDYLLITEIVNKDWYKGEVYDNDRIDRNHRIGLIPYNFIQLLHQGL
For B2, the binding result (in assay [1]; in the assay with Inn1-TAP (S. cerevisiae)) was “binds” each time.

B3: Cyk3 (endogenous, in yeast extract) (protein, UniProt Q07533 1-885)
chain: MATNLTSLKPPFKVKARYGWSGQTKGDLGFLEGDIMEVTRIAGSWFYGKLLRNKKCSGYFPHNFVILLEERLNSSTENGRQPSKIVESFEKSNKVVIPPVPSRYSDERPRPKKKLSSSMPNSPKKPVDSLTKARKAKSKEMVNEKNIYNTQSSRHHNNSAPNLPLASHSKPQVRNFEESMNNPLPPLPPLPDLDNMRKTDKRAPKKSYSANDLHMARSSREYNYYKDNQKFYDGFIPEKRYSLEEDSISSGLFSNSQYLNDSACSSENSFALMSDFSATSAGSFARHKYAQSFSDSLQRSQNANGCSTKINDSQEFGDSNASSRNGKMGDILRKIIIPKRNTNIYSSSVSSPKSPKAYPKLPDIQNLNLSATPDEARDWIAVKCHLNRARTLTKYDKHPRYMRALEENRDLILHPQDSIYNGLNTNEVKGNTKPGLVDVELAELNIEYIDKMTWKRCIRDGTMTLDSWAQTTFSARYSTVLEKLRGIYIFCTEMFALTDDNGTSDFSAEPQNLEKILYRKHCTPYELTWLFKKLANSLGITCEIVIGFLKTPSAINWEFKYNHCWLRILVNKEWRFIDVILGNVTNPIHEFVNNRKIKKAENSYFLMAPLEMIYTHIPPREFEQHIVPSIDQLSALYLPLVFPSFFKNELKLYKFSTALSFLEDSEIYECSLEIPNDVEVFASVVIPTDNEEASSAYRNMELALTQIKKQKAESGRRIALIKAVLPPNVNKGSLYIHSGVRGTQTSIANIHPLSMMVPLTHKGSNMKYEFVIKIPSESIQKIELYIVEPQSRYLFVGNEYSFEVIQSPSDGIVYSSDEGPNQNRKQPMAIKSPSGRVHELVKSDPHFPYGTWKGSIKIKEPGVWSALVIADSGIGWSVFAEWLCV
B3: the binding result (in assay [1]; with Inn1-TAP (S. cerevisiae)) was “binds” in each case.
